# Laboratory results as given in PubChem BioAssay AID493014 (National Center for Advancing Translational Sciences (NCATS), 2011).
# Out of some 340,000 compounds screened, about 170 (0.05%) were called active. Inconclusive means that the source gave no clear call. Such entries were picked first, then a sample of the others. Calls follow the shape of the dose curve; as a rule, active = well fitted inhibition curve with a large enough effect in the signal ratio, with a control signal flat (not every such curve was filed as active); inconclusive = small, poorly fitted or top-dose-only effect, or effect the other way, or a change in a side signal; inactive = flat fitted curve, though single readings scatter; the % refers to the signal ratio. Where the call is inconclusive, the potency comes from a doubtful curve fit.
# Test: qHTS Assay to Find Inhibitors of Chronic Active B-Cell Receptor Signaling;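 as to activity change, negative = inhibition: plate controls were basal doxycycline-induced cells for no effect and cells given 10 µM MG132 for full effect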
# Conditions: ABC-DLBCL IkBa-CBG/CBR reporter, luminescence ratio (green luciferase fused to IkBa over red control in TMD8 lymphoma cells), 4 h; activity change, negative = inhibition: at 46.1 µM (top of the series)
# How it was run: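 Doxycycline induced both beetle luciferases in TMD8 lymphoma cells; IKK-driven degradation limits the IkappaBalpha-fused green signal, while red luminescence normalises for cell number and nonspecific effects. Compounds tested up to 46 uM, 4 hrs.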
# Potency is read from the fitted curve at half-maximal effect.
SMILES,"activity change, negative = inhibition",Potency
Cc1nc2ccc(NC(=O)c3ccc([N+](=O)[O-])cc3)cc2[nH]1,inconclusive: 0.203%,
COc1ccccc1N1CCN(C(=O)CC(NC(=O)c2ccccc2Cl)c2ccccc2)CC1 (centres undefined),inconclusive: 9.39%,
C=CCNc1nc(Nc2ccc([N+](=O)[O-])cc2)nc(N2CCCC2)n1,inactive: -17.2%,
O=C1CSc2ccc(C(=O)Nc3cccc(S(=O)(=O)Nc4ccc(Br)cc4)c3)cc2N1,inconclusive: 8.59%,
O=C(CSc1ccccn1)Nc1ccccc1F,inactive: -1.7%,
CC(=O)CCC(=O)c1ccc2ccccc2c1,inconclusive: -0.119%,
CS(=O)c1nc(-c2ccc(Br)cc2)cc(-c2ccccc2)c1C#N (centres undefined),,"inconclusive: 1.46 µM [falling, full curve, poor fit]"
O=C(Nc1ccccc1)n1ccc(-c2ccc(-n3ccnc3)cc2)n1,,"inconclusive: 22.4 µM [falling, single point]"
O=C(Nc1nc(-c2cccs2)cs1)c1ccc(S(=O)(=O)N2CCCC2)cc1,inconclusive: 6.09%,
CCOc1ccccc1NC(=O)CSc1nc2ccccc2nc1N1CCOCC1,,"inconclusive: 6.31 µM [falling, single point]"
COc1ccc(NC(=O)c2cc(Cl)ccc2NC(=O)c2ccco2)c(OC)c1,,"inconclusive: 2.59 µM [falling, full curve, poor fit]"
Cc1ccccc1Nc1ncnc2c1cnn2-c1ccccc1,,"inconclusive: 18.4 µM [falling, partial curve]"
COc1ccc(CCc2nnc(N)s2)cc1OC,inconclusive: -1.06%,
Nc1nc(N)nc(-c2ccc(Cl)cc2)n1,inconclusive: 2.81%,
COc1ccc2c(c1OC)C(=O)OC2,inconclusive: 3.12%,
O=[N+]([O-])c1ccc(Nc2cccc(F)c2)nc1,inconclusive: 13.6%,
O=C(COC(=O)COc1ccc(Cl)cc1)NC1CCCC1,inactive: 2.14%,
COc1ccc(-c2cn3c(C)c(C(=O)N4CCN(c5ccc(F)cc5)CC4)sc3n2)cc1,,"inconclusive: 23.1 µM [falling, partial curve]"
CN=C(Nc1ccc(C(=O)OC)s1)c1ccc(Cl)cc1,inconclusive: -26.7%,
CC(C)=CC(=O)OCC(=O)Nc1cc([N+](=O)[O-])ccc1F,inconclusive: -0.0184%,
Cc1ccc2c(CC(=O)OCc3cc(=O)n4c(n3)sc3ccccc34)coc2c1,,"inconclusive: 35.5 µM [falling, single point]"
COc1cc(OC)cc(C(=O)NC(=S)NCCc2ccccc2)c1,,"inconclusive: 2 µM [falling, partial curve, poor fit]"
COc1cccc(NC(=O)c2cc(CN3C(=O)c4ccccc4C3=O)ccc2OC)c1,inactive: -0.252%,
COC(=O)c1cc(NC(=O)C2(S(=O)(=O)c3ccc(C)cc3)CC2)cc(C(=O)OC)c1,,"inconclusive: 1.84 µM [falling, partial curve, poor fit]"
O=C(O)CC12CC3CC(C1)CC(n1ncc(NCc4ccc(F)cc4)c(Cl)c1=O)(C3)C2,inconclusive: 3.13%,
CCOC(=O)N1CC=C2C(C#N)=C(N)C(C#N)(C#N)[C@H](c3ccc(OC(C)C)c(OCC)c3)[C@H]2C1,,"inconclusive: 13 µM [falling, partial curve, poor fit]"
S=C(NCc1ccco1)Nc1ccc(Cl)c(Cl)c1,inconclusive: 7.71%,

SMILES,"activity change, negative = inhibition",Potency
Cc1cc(O)c(C(C)C)cc1NC(=O)c1ccc(Cl)cc1,inconclusive: 14%,
O=C(NCCO)C(O)C(O)C(=O)NCCO (centres undefined),,"inconclusive: 35.5 µM [falling, single point]"
Cc1nn(-c2ccc(C(=O)NCC(c3ccco3)N3CCCC3)cc2)c(C)c1Cl (centres undefined),inactive: -1.86%,
CNCCCOc1ccc(C)cc1Br,,"inconclusive: 18.4 µM [activator, single point]"
c1ccc2oc(SCc3cn4ccccc4n3)nc2c1,,"inconclusive: 18.4 µM [falling, partial curve]"
Cc1nc2ccccc2c(=O)n1NC(=O)c1ccc(Cl)c([N+](=O)[O-])c1,inconclusive: -0.017%,
CCOc1cc(/C=N/NC(=O)c2nn(C)cc2Br)ccc1OCc1ccccc1Cl,inconclusive: -11.7%,
Cc1ccccc1NC(=O)NCCc1c[nH]c2ccccc12,,"inconclusive: 35.5 µM [rising, single point]"
COc1ccc(-c2cc(C)no2)cc1S(=O)(=O)N1CCN(c2cccc(C)c2)C(C)C1 (centres undefined),inconclusive: -3.45%,
COc1cc(OC)cc(-c2nnc(SCc3cccnc3)o2)c1,inconclusive: -13.8%,
COc1ccc(CC2(CO)CCN(Cc3cccn3-c3ccccn3)CC2)cc1,inactive: 8.88%,
OC[C@H]1O[C@H](OC[C@H]2OC(O)[C@H](O)[C@@H](O)[C@@H]2O)[C@H](O)[C@@H](O)[C@@H]1O (some centres undefined),,"inconclusive: 0.326 µM [falling, full curve, poor fit]"
O=C(C1=C[C@@H](c2ccc3c(c2)OCO3)C[C@@H](OCCCCO)O1)N1CCN(Cc2ccc3c(c2)OCO3)CC1,inactive: -9.26%,
Cc1ccc(S(=O)(=O)NC2OC(=O)C(Cl)=C2Cl)cc1 (centres undefined),inconclusive: 13.7%,
O=C1C(N2CCOCC2)=C(n2nnc3ccccc32)C(=O)c2ccccc21,inconclusive: 4.69%,
CCOC(=O)C1(Cc2cccc(Cl)c2)CCCN(C(=O)c2ccc(COC)s2)C1 (centres undefined),,"inconclusive: 10 µM [falling, partial curve, poor fit]"
O=C(CSc1ccc(Cl)cc1)Nc1ccc(N2CCN(C(=O)c3ccco3)CC2)cc1,inconclusive: 17.3%,
CC(C)NC(=O)c1ccc2c(c1)N(CC(=O)N1CCOCC1)C(=O)C(C)(C)O2,inconclusive: -2.54%,
O=C1c2ccccc2-c2c1cccc2C(=O)N1CCOCC1,inconclusive: 6.26%,
Cc1ccc(C(=O)CCC(=O)Nc2ccccc2C)c(C)c1,,"inconclusive: 12.6 µM [falling, partial curve]"
O=C(Nc1ccccc1)c1ccc(NCCN2C(=O)CCC2=O)c([N+](=O)[O-])c1,inconclusive: 2.44%,
COc1nc(N2CCOCC2)nc(-n2cccc2)n1,,"inconclusive: 10.3 µM [falling, partial curve, poor fit]"
Cc1ccc(-n2c(Cc3cccs3)nnc2SCC(=O)OC(C)C)cc1,inconclusive: 2.75%,
OC(CSc1ccccc1Cl)CN1CCN(c2ccccc2F)CC1 (centres undefined),inconclusive: 9.53%,
C/C(=N\NC(=O)CSc1nc2ccccc2s1)c1cccnc1,inactive: 2.93%,
Cc1cc(C(C)(C)C)n2nc(C)c(-c3ccccc3)c2n1,inconclusive: 7.24%,
COc1ccc(C2NC(=O)NC(C)=C2C(C)=O)cc1 (centres undefined),inconclusive: 12.9%,

SMILES,"activity change, negative = inhibition",Potency
COc1ccc(-c2ccc3oc(-c4ccsc4)cc(=O)c3c2)cc1F,,"inconclusive: 25.9 µM [falling, single point]"
C=CCc1c(C)nc(SCC(=C)C)[nH]c1=O,inconclusive: -14.5%,
Clc1ccc(-c2csc(N3CCc4ccccc4C3)n2)cc1,inconclusive: 8.07%,
O=C(CSc1nnc(-c2ccccn2)n1Cc1ccco1)c1ccc(-c2ccccc2)cc1,inactive: 0.145%,
COc1cc(OC)cc(C(=O)NC(=S)Nc2ccc(Cl)c(C(=O)O)c2)c1,,"inconclusive: 14.1 µM [falling, single point]"
COc1ccccc1C(=O)NC(CCSC)C(=O)NNC(=O)c1ccccc1O (centres undefined),,"inconclusive: 29.1 µM [falling, single point]"
COc1ccc(OC)c(NC(=O)c2c(NCc3cccs3)sc3c2CCCCC3)c1,inactive: -4.17%,
CC(=O)N(CCCNC(=O)c1ccccc1)C(=O)c1ccccc1,inactive: 1.76%,
Cc1ccc(NC(=O)CCn2c(=S)oc3ccccc32)cc1,inactive: 5.34%,
CCc1nn2c(NCCOC)cc(C)nc2c1-c1ccc(F)cc1,inconclusive: -1.04%,
CC(O)CNCCNCc1c(OCc2ccccc2)ccc2ccccc12 (centres undefined),,"inconclusive: 22.4 µM [falling, single point]"
CCOC(=O)C(/C(C)=N/NC(=O)c1ccccc1[N+](=O)[O-])C(C)C (centres undefined),inactive: -9.7%,
O=c1c2ccccc2nc2n1C1(CCCCC1)Cc1ccccc1-2,,"inconclusive: 25.9 µM [rising, single point]"
CCCCSc1nc2sc3c(c2c(=O)[nH]1)CC(C)(CC)OC3 (centres undefined),inconclusive: 11.3%,
COc1cccc(C(=O)NNC(=O)CCc2ccccc2)c1,,"inconclusive: 14.1 µM [falling, partial curve, poor fit]"
O=C(N/N=C/c1ccc(F)cc1)c1cccc(NC(=O)c2ccccc2Cl)c1,inconclusive: -15.4%,
CCc1oc(C(=O)OC)cc1CSC(=N)N,,"inconclusive: 35.5 µM [falling, single point]"
Cc1c(Br)cc(C(=O)NCCCN2CCOCC2)c(C)c1C,inconclusive: 2.24%,
O=C(CCc1ccccc1)c1ccc2c(c1)OCCCO2,,"inconclusive: 16.4 µM [falling, single point]"
COc1ccc(CC(=O)NNc2ncnc3c2cnn3C)cc1OC,inactive: -2.03%,
CCN1CCN(c2cc(C)c3cc(NC(=O)c4cccc(OC)c4)ccc3n2)CC1,inactive: -1.08%,
Cc1cc(NC(=O)c2cncc(Br)c2)ccc1NC(=O)c1cc2ccccc2o1,inactive: 0.183%,
CCN1CCN(c2c(/C=C3\SC(=S)N(Cc4ccco4)C3=O)c(C)c(C#N)c(=O)n2C)CC1,inconclusive: -4.87%,
O=c1[nH]c(C2CCN(S(=O)(=O)c3ccccc3)CC2)nc2c1nnn2Cc1c(F)cccc1Cl,inconclusive: -11.6%,
CN(Cc1ccccc1)C(=O)COc1ccc(C(C)(C)C)cc1,inconclusive: 2.11%,

# Individual results from the entries so far.
# For activity change, negative = inhibition, CCc1nn2c(NCCOC)cc(C)nc2c1-c1ccc(F)cc1 has the entry inconclusive: -1.04%
# For Potency, O=c1c2ccccc2nc2n1C1(CCCCC1)Cc1ccccc1-2 has the entry inconclusive: 25.9 µM [rising, single point]
# For activity change, negative = inhibition, O=c1[nH]c(C2CCN(S(=O)(=O)c3ccccc3)CC2)nc2c1nnn2Cc1c(F)cccc1Cl has the entry inconclusive: -11.6%
# For activity change, negative = inhibition, O=C(N/N=C/c1ccc(F)cc1)c1cccc(NC(=O)c2ccccc2Cl)c1 has the entry inconclusive: -15.4%
# For activity change, negative = inhibition, Cc1c(Br)cc(C(=O)NCCCN2CCOCC2)c(C)c1C has the entry inconclusive: 2.24%
